The list shows a part of the results. The main result of the screen is listed elsewhere. These columns were measured beside it and carry no call. Compounds called inactive in the main read-out are mostly missing here. Words in brackets tell the shape of the fitted curve; partial curves, single points and poor fits give uncertain potencies.
test: qHTS Assay for Identifying the Cell-Membrane Permeable IMPase Inhibitors; conditions: CHO-M1 cells, IP1 accumulation, HTRF TR-FRET ratio; measured here: donor channel 620 nm AC50

SMILES	AC50
CC(=O)c1cccc(S(=O)(=O)NCC(c2ccco2)N2CCCCC2)c1 (configuration not stated)	20 nM [falling, full curve, poor fit]
COC(c1ccccc1)c1c(-c2ccccc2)nn(C)c1Cl (configuration not stated)	794 nM [falling, full curve, poor fit]
Cc1ccc2cccc(NC(=S)NC(=O)c3ccnn3C)c2n1	794 nM [falling, full curve]
Clc1ccc(CSc2nnc([C@@H]3CCCN3)o2)cc1	25.1 nM [rising, full curve, poor fit]
Cc1ccc(C(=O)O)cc1N1C(=O)c2cccc3cc(Br)cc(c23)C1=O	3980 nM [rising, full curve]
CCOC(=O)C1(C)C=C(Nc2ccc(OC)cc2)C(=O)N1c1ccccc1 (configuration not stated)	794 nM [falling, full curve, poor fit]
Cc1cccc(NC(=S)NCc2cccs2)c1C	39.8 nM [rising, full curve, poor fit]
CC1=CC(=O)C=C(C)C1=NOS(=O)(=O)c1ccccc1	31600 nM [falling, single point]
CC(C(=O)O)N1C(=O)c2cccc3cccc1c23 (configuration not stated)	35500 nM [falling, single point]
COc1ccc(OC)c(NC(=O)Cc2c(C(=O)O)[nH]c3ccc(Cl)cc23)c1	22.4 nM [falling, full curve, poor fit]
COC(=O)c1ccc2nc(NC(=O)CN3C(=O)CCC3=O)sc2c1	200 nM [falling, full curve, poor fit]
Cc1c(Cl)c(-c2n[nH]c(=S)n2-c2ccccc2)nn1C	15800 nM [rising, single point]
O=C(O)CCc1ccc(-c2ccc(Br)cc2)o1	12600 nM [rising, partial curve]
Cc1cccc(C(=O)Nc2oc(-c3ccccc3)cc2C#N)c1	25100 nM [falling, single point]
CCOC(=O)c1ccc(NC(=O)CN2C(=O)CCC2=O)cc1	100 nM [falling, partial curve]
COc1cccc(C(=O)c2sc(NC(C)C)nc2N)c1	398 nM [rising, full curve, poor fit]
Cc1ccc(OCCN2CCN(C(=O)CCC(=O)Nc3nnc(C)s3)CC2)cc1	224 nM [rising, partial curve]
Cc1nn(-c2ccccc2)c2[nH]c(=O)c(CNCCN3CCOCC3)cc12	794 nM [falling, full curve]
CC1(C)CC(=O)C2=C(C1)N=C1SCCC(=O)N1C2c1ccccc1 (configuration not stated)	158 nM [falling, full curve, poor fit]
Cc1ccc(CNC(=O)c2cc3c(=O)n(C)c4ccccc4c3n2C)cc1	31600 nM [rising, single point]
CCCCCCNS(=O)(=O)c1ccc(OC)c(OC)c1	1000 nM [falling, partial curve]
CCn1cc(CNC(=O)c2cc(-c3ccccc3OC)nc3ccccc23)c(C)n1	251 nM [falling, full curve, poor fit]
CCOc1cc2[nH]c(=O)n(CCCN3CCCC3=O)c(=O)c2cc1OCC	31.6 nM [falling, full curve, poor fit]

SMILES	AC50
Cc1ccc2c(CC(=O)O)coc2c1	31.6 nM [falling, full curve, poor fit]
CC1=C(C(=O)Nc2ccc(F)cc2)C(c2ccc(N(C)C)cc2)NC(=O)N1 (configuration not stated)	35500 nM [falling, single point]
CCOc1ccccc1N1CCN(C(=O)C(Sc2ccccc2)c2ccccc2)CC1 (configuration not stated)	31600 nM [rising, single point]
CCCCCCOc1cccc(N)c1	2510 nM [falling, partial curve]
CC(=O)Nc1ccc(S(=O)(=O)N(c2cccnc2)S(=O)(=O)c2ccc(NC(C)=O)cc2)cc1	10000 nM [falling, partial curve, poor fit]
CNC(=O)OCc1cccc(COC(=O)NC)n1	79.4 nM [rising, full curve, poor fit]
N#C/C(=C\c1ccc(O)c(O)c1)C(N)=O	20000 nM [falling, partial curve, poor fit]
CCOC(=O)CSc1nc2c(c(=O)n(C)c(=O)n2C)n1CCCc1ccccc1	12.6 nM [rising, partial curve, poor fit]
CCOC(=O)c1c(C)c(C#N)c2c3ccccc3ccn12	5010 nM [rising, single point]
Cc1cccc(NC(=O)c2cc3c(C)nn(-c4ccccc4)c3s2)c1	447 nM [falling, partial curve, poor fit]
O=C(O)C1CCC(=O)N(C2CCCCC2)C1c1ccccc1 (configuration not stated)	5010 nM [falling, single point]
CN(C)/C=N/C(=S)Nc1ccc(F)cc1	1120 nM [falling, full curve, poor fit]
Clc1ccc(-c2n[nH]c3c2CCC3)c(Cl)c1	158 nM [falling, full curve, poor fit]
O=c1c2ccccc2nc(-c2ccc(Cl)cc2)n1CCCCOc1ccc(F)cc1	631 nM [falling, partial curve, poor fit]
CCNC(=S)N/N=C/c1cc(Br)cc(Br)c1OC	2000 nM [falling, full curve]
CCC1CCCCN1C(=O)CSc1nc(-c2ccc(OC)cc2)cc(C(F)(F)F)n1 (configuration not stated)	3160 nM [falling, full curve]
CCOC(=O)C1CCCN(c2c(NCCCN3CCCC(C)C3)c(=O)c2=O)C1 (configuration not stated)	31600 nM [falling, partial curve, poor fit]
CCOC(=O)c1sc(C)c2c1NC(c1ccc(N(C)C)cc1)NC2=O (configuration not stated)	5010 nM [rising, full curve]
CCCOC(=O)c1ccc(NC(=O)c2cnccn2)cc1	25.1 nM [rising, full curve, poor fit]
CCOC(=O)c1cc(Br)c(=O)n2ccccc12	12600 nM [rising, single point]
CCOC(=O)c1c(-c2ccc(C)o2)csc1NC(=O)COC(=O)c1ccc(NC(N)=O)cc1	31600 nM [rising, single point]
CCOc1ccc2cc(C#N)c(SCC(=O)NC(C)CC)nc2c1 (configuration not stated)	25100 nM [rising, single point]
O=C(CN(CCc1ccccc1)S(=O)(=O)c1ccccc1)NCc1ccc(Cl)cc1	3160 nM [rising, single point]

SMILES	AC50
NS(=O)(=O)c1ccc(NC(=O)CN2CCN(Cc3ccccc3)CC2)cc1	3.16 nM [falling, full curve, poor fit]
CCOC(=O)c1ccc(NC(=O)C(C)N(c2ccc(OCC)cc2)S(C)(=O)=O)cc1 (configuration not stated)	1120 nM [falling, full curve, poor fit]
CC1CCN(c2cc(N)c(Cl)cc2[N+](=O)[O-])CC1	3160 nM [rising, full curve]
Cc1cc(C)cc(Nc2nnc(-n3nc(C)cc3C)c3ccccc23)c1	20000 nM [falling, partial curve, poor fit]
Cn1cc(Cl)c(C(=O)Nc2nc3ccc(Cl)cc3s2)n1	31600 nM [falling, single point]
COc1cc(C)c(S(=O)(=O)Nc2ccccc2F)cc1C	126 nM [falling, full curve, poor fit]
Cc1nc(Cc2nnc(SCc3nc(N)nc(Nc4ccccc4C)n3)o2)cs1	631 nM [falling, partial curve, poor fit]
CCOC(=O)/C(C#N)=C/c1ccc(OC(=O)c2ccco2)c(OCC)c1	17800 nM [rising, partial curve]
Cc1nnc(NC(=O)Cn2cnc3c2c(=O)n(C)c(=O)n3C)s1	1000 nM [falling, full curve]
CC(C)CNC(=O)CSc1nnc(-c2cccc(S(=O)(=O)N3CCCCC3)c2)o1	794 nM [falling, full curve]
COc1ccc(C(=O)/C=C/c2ccc(OC)c(COc3ccccc3F)c2)cc1	3160 nM [rising, single point]
CCCC(=O)N1CCc2cc(-c3nc(N)sc3C)ccc21	3980 nM [rising, partial curve]
Cc1ccccc1OCc1nnc(SCC(=O)N2c3ccccc3Sc3ccc(Cl)cc32)o1	158 nM [falling, full curve, poor fit]
COc1ccc(-c2cc(C(F)F)n3ncc(C(=O)N4CCN5CCCC5C4)c3n2)cc1 (configuration not stated)	3980 nM [falling, full curve]
Cc1ccccc1NC(=O)/C(=C/c1cccs1)NC(=O)c1ccco1	14100 nM [falling, partial curve, poor fit]
Cc1sc(NC(=O)c2ccco2)c(C(c2ccncc2)N2CCOCC2)c1C (configuration not stated)	5010 nM [rising, single point]
O=C(NCCc1ccccc1)c1cc2sccc2n1Cc1ccccc1	31600 nM [rising, single point]
CC(=O)c1c(C)oc2ccc(N(C(=O)Oc3ccccc3)S(=O)(=O)c3ccccc3)cc12	5620 nM [falling, single point]
CCn1cnc2cc(NCc3cccc(OC)c3O)ccc21	2820 nM [falling, single point]
COc1ccc(C2C=C(c3cccs3)Nc3nc(CCCO)nn32)cc1 (configuration not stated)	15800 nM [rising, partial curve]
Cc1ccc(C(=O)C2=C(O)C(=O)N(CCCn3ccnc3)C2c2ccc(OC(C)C)cc2)o1 (configuration not stated)	15800 nM [rising, single point]

From PubChem BioAssay AID901 (National Center for Advancing Translational Sciences (NCATS), 2007)
